Data as given in US20170204445A1, “IN VIVO SITE-[…] PROTEIN TAGGING USING […] VARIANTS” (priority 2016, published 2017).
Some entries share one result that the patent states for a list of compounds.

Target: T1, SrtA7M (Staphylococcus aureus, UniProt Q2FV99, D160N/D165A/E105K/E108Q/G167E/K190E/K196T/P94R)
T1 construct: […]; made in house; host or cells: E. coli
Experiment: In vitro conjugation of purified LPETGG-tagged proteins by SrtA7M (ESI-TOF LC-MS)
Assay type: biochemical
Conditions: 10 μM SrtA7M, 8 hours, 37° C., with the desired amine
Protocol: FIG. 3. Transpeptidation of purified proteins. Purified proteins expressed with a C-terminal LPETGG sequence were incubated with 10 μM SrtA7M for 8 hours at 37° C. along with the desired amine. Proteins were then diluted 10-fold with 0.2% formic acid and analyzed by ESI-TOF LC-MS. (A) Maltose binding protein. (B) Sf9 nanobody, and (C) Fibronectin Fn10, all show 80-100% conversion to the desired conjugate.
FIG. 9. Sortase conjugation time course.
FIG. 10. In vitro conjugation of sfGFP derivatives. (A) His-sfGFP-srt and (B) sfGFPHis-srt were incubated with 10 μM SrtA7M and 100 mM Azp or propargylamine for 8 hours at 37° C.
We next determined the ability of SrtA7M to modify purified proteins. We incubated several proteins containing a C terminal LPETGG sequence (srt) with 10 μM enzyme and either 100 mM Azp or propargylamine, followed by quenching with formic acid. […] To define the effective range of reaction conditions, we tested the conjugation of MBP-srt with Azp at different time points and substrate concentrations.
In vitro conjugation of proteins. Purified MBP-srt, His-sfGFP-srt, Nanobody-His-srt, Glutathione-S-transferase-His-srt, Fibronectin-His-srt, and sfGFP-His-srt were labeled after purification in 100 mM ammonium bicarbonate buffer pH 7.8. […]

B1: Fn10-His-srt: engineered fibronectin domain Fn10 with His tag and C terminal LPETGG, SEQ ID NO: 29 (protein, listed as Homo sapiens)
chain: MLVPRGSSDVPRDLEVVAATPTSLLISWDAPAVTVRYYRITYGETGGNSPVQEFTVPGSKSTATISGLKPGVDYTITVYAVTPRGDWNEGSKPISINYRTGKKGKGGHHHHHHLPETGG
modifications: His tag, LPETGG
conversion to the desired conjugate: 80-100%
